Measurements as given in the supplement of paper PMC7666118.
The list shows a part of the results.

Sequences of proteins named here, by UniProt entry; tags and fusion partners are left off. A change or cut given only in a name is not applied to a line headed by its entry.
UniProt Q6FIF0: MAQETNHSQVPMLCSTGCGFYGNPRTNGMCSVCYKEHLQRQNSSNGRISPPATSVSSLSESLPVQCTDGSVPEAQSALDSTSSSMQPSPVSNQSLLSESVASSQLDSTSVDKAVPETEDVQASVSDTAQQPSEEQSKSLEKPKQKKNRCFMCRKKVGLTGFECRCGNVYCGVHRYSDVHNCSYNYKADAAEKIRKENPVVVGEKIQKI
UniProt Q9Y548: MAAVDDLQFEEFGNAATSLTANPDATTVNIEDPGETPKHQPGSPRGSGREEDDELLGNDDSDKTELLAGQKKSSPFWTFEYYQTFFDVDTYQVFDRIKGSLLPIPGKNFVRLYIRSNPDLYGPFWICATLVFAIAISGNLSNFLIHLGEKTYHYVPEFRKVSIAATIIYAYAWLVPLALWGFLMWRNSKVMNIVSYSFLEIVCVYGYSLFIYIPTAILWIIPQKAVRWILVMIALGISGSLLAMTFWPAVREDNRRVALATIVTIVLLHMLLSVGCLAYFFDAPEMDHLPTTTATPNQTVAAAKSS
UniProt Q96S15: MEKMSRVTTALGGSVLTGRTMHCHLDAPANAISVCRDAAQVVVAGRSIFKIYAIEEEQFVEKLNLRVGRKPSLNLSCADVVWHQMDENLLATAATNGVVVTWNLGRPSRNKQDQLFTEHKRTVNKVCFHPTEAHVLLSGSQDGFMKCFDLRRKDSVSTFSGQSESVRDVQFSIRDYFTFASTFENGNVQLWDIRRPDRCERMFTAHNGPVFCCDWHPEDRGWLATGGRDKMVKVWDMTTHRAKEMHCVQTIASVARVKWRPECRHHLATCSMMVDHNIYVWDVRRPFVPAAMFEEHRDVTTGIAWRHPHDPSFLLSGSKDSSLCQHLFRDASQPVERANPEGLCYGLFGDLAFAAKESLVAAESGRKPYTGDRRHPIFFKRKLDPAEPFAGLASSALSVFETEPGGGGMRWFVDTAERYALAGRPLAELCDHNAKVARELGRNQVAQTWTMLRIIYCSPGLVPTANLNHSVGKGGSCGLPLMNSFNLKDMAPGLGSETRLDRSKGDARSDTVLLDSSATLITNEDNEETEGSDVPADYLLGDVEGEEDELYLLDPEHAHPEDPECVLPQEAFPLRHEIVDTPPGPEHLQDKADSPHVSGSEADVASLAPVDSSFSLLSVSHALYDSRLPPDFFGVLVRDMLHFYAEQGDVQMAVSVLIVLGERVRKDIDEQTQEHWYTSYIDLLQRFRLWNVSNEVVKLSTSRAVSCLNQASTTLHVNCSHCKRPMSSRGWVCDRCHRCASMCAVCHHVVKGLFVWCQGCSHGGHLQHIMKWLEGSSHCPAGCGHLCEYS
UniProt O95785: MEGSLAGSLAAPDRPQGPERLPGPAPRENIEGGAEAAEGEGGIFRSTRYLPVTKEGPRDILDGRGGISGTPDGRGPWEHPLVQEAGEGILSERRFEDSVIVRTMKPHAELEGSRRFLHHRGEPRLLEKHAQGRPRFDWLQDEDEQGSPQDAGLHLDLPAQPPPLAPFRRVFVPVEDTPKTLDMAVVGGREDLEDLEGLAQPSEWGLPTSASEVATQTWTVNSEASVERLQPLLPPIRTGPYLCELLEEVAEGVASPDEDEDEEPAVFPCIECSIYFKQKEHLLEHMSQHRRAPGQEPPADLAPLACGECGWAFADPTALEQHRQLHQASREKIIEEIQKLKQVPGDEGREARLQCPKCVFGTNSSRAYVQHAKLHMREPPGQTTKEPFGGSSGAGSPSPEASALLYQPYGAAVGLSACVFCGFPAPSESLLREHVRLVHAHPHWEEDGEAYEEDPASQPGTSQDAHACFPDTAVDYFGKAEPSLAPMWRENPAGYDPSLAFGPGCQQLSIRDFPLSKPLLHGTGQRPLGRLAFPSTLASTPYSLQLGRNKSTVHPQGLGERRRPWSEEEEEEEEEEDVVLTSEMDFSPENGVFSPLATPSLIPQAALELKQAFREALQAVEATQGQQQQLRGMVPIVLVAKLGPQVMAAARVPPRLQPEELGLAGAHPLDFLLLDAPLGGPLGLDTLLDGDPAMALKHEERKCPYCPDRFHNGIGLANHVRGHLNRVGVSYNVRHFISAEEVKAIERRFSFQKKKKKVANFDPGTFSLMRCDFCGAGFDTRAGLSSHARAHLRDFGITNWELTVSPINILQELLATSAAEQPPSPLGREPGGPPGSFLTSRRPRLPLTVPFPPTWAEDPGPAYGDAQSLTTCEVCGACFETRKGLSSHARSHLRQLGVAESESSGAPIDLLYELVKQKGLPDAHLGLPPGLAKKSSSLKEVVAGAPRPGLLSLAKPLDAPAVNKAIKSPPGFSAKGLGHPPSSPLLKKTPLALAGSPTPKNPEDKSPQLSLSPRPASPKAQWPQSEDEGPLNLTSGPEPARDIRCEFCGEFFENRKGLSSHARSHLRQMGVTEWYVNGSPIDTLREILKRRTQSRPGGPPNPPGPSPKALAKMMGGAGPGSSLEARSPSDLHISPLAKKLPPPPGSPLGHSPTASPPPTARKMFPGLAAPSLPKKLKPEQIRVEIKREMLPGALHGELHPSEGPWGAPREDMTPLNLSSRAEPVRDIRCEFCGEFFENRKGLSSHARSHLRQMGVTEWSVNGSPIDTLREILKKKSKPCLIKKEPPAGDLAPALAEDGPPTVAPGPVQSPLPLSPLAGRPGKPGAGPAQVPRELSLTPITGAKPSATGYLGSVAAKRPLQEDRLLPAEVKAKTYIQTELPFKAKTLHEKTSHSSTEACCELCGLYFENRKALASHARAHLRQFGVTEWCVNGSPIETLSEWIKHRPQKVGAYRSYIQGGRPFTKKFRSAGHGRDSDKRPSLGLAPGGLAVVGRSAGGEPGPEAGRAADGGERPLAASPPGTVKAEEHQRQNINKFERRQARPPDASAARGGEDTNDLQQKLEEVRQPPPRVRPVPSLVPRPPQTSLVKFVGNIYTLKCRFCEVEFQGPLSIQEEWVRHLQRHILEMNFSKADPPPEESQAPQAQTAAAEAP
UniProt Q96C00: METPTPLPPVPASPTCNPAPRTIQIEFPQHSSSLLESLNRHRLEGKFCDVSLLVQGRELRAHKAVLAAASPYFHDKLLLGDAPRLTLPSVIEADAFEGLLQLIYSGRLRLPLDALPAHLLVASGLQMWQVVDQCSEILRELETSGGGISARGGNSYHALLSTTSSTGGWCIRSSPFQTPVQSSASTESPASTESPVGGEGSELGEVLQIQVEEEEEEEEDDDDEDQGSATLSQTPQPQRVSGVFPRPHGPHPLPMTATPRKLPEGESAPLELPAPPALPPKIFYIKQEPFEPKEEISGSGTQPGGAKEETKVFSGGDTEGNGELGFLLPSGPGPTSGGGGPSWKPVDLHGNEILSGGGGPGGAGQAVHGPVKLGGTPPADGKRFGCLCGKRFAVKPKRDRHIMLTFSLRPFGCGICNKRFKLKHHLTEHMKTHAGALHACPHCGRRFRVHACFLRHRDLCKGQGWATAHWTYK
UniProt Q96QU8: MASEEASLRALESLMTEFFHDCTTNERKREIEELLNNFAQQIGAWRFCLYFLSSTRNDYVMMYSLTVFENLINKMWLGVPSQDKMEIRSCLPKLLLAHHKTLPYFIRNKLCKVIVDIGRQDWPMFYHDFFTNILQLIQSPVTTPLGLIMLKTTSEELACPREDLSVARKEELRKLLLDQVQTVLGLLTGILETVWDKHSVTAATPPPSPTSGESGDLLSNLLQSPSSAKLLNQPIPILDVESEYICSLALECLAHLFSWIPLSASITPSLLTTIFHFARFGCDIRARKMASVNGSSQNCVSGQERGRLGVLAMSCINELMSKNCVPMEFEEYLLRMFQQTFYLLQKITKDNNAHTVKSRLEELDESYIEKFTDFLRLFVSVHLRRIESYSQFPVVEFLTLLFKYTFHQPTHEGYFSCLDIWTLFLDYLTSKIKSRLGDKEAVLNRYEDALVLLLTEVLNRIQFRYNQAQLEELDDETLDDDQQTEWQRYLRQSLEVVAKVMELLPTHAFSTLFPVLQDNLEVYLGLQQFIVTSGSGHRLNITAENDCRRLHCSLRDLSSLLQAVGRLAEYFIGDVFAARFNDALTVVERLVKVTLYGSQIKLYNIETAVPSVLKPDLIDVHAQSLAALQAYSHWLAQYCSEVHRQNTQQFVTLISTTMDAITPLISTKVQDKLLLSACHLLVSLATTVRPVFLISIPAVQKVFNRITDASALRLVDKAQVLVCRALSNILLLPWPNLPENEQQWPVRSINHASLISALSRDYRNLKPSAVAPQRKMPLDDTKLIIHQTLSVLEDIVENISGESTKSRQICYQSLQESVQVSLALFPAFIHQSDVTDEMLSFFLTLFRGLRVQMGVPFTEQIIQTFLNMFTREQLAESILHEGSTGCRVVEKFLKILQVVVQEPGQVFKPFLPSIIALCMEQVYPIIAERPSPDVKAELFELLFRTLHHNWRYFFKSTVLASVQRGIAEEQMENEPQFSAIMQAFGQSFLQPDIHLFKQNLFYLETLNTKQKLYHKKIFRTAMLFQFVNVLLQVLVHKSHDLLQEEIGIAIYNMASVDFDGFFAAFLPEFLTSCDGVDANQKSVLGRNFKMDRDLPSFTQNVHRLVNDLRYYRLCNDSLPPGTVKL
UniProt Q9NV06: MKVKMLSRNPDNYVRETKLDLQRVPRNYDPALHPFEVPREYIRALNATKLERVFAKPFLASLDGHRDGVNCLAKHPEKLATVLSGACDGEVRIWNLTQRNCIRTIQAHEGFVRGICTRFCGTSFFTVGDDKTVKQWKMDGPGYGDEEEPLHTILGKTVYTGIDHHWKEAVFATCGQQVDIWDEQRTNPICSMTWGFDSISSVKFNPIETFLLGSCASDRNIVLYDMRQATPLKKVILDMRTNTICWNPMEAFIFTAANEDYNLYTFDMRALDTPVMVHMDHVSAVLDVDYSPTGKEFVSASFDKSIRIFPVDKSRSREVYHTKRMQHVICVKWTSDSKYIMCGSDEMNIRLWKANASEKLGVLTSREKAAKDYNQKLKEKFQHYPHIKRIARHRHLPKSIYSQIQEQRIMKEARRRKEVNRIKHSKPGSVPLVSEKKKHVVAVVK
UniProt Q8NI36: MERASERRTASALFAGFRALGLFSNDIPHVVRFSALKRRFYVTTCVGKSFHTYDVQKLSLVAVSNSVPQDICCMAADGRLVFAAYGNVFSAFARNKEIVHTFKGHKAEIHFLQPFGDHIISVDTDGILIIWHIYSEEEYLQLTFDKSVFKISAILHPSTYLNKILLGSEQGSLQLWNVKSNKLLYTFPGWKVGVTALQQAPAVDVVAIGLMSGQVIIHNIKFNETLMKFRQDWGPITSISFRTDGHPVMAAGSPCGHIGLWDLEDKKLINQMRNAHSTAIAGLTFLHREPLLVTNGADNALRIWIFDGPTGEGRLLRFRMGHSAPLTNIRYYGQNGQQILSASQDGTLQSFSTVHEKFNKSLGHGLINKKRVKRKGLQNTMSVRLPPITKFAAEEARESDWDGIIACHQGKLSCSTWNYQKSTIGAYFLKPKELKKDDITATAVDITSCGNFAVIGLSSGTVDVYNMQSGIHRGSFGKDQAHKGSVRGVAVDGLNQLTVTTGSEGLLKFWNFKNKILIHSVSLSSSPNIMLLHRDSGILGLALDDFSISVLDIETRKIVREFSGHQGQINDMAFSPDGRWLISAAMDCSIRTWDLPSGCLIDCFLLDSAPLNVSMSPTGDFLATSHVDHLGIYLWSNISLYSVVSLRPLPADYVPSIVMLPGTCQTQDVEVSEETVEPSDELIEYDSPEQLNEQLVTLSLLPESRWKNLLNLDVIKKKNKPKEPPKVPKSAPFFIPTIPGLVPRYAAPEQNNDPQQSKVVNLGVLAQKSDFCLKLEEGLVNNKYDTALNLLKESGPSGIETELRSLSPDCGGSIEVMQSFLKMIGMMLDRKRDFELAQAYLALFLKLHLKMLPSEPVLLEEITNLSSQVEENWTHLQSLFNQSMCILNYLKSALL
UniProt Q8IUH5: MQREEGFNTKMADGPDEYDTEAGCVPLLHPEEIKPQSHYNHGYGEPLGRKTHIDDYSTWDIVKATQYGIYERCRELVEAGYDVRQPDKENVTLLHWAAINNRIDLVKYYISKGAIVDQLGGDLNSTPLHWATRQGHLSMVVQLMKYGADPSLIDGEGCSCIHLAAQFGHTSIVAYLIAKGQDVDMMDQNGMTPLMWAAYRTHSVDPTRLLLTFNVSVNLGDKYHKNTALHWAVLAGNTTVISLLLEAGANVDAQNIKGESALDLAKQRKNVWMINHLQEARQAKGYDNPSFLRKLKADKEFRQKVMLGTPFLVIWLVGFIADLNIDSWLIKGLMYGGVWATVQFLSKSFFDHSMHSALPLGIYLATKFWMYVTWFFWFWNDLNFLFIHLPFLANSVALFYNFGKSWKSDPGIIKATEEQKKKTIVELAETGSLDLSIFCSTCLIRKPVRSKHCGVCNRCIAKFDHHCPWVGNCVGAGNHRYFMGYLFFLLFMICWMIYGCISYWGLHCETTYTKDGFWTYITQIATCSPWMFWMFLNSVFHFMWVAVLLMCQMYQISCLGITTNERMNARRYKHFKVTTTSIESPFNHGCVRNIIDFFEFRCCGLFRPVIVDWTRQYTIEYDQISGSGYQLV

The targets below were run with COc1ccc(Cn2ccc3ccc(C(=O)NO)cc32)cc1 (assay: dose-dependent thermal stabilisation call (2D-TPP, DLPTP, 10% FDR) (binary (1 = stabilised)); higher = stabilised by the compound). Conditions: system: HL-60 intact cells; concentration range 0.04-10 µM.

| Target | dose-dependent thermal stabilisation call |
| --- | --- |
| WDR32 (UniProt Q5QP82) | inactive: 0 |
| WRN (UniProt Q14191) | inactive: 0 |
| VPS45 (UniProt Q9NRW7) | inactive: 0 |
| UTP20 (UniProt O75691) | inactive: 0 |
| VPS4B (UniProt O75351) | inactive: 0 |
| WDR62 (UniProt O43379) | inactive: 0 |
| WDR85 (UniProt Q9BTV6) | inactive: 0 |
| WTAP (UniProt Q15007) | inactive: 0 |
| ZFAND6 (UniProt Q6FIF0) | inactive: 0 |
| YWHAB (UniProt P31946) | inactive: 0 |
| ZMIZ1 (UniProt Q9ULJ6) | inactive: 0 |
| YKT6 (UniProt O15498) | inactive: 0 |
| YIPF1 (UniProt Q9Y548) | inactive: 0 |
| VPS52 (UniProt Q8N1B4) | inactive: 0 |
| YDJC (UniProt A8MPS7) | inactive: 0 |
| WDR24 (UniProt Q96S15) | inactive: 0 |
| WDR8 (UniProt Q9P2S5) | inactive: 0 |
| WIZ (UniProt O95785) | inactive: 0 |
| ZKSCAN4 (UniProt Q969J2) | inactive: 0 |

| Target | dose-dependent thermal stabilisation call |
| --- | --- |
| ZBTB9 (UniProt Q96C00) | inactive: 0 |
| YES1 (UniProt P07947) | inactive: 0 |
| VBP1 (UniProt P61758) | inactive: 0 |
| YEATS2 (UniProt Q9ULM3) | inactive: 0 |
| VAC14 (UniProt Q08AM6) | inactive: 0 |
| VDAC3 (UniProt Q9Y277) | inactive: 0 |
| XPO6 (UniProt Q96QU8) | inactive: 0 |
| VPS53 (UniProt Q5VIR6) | inactive: 0 |
| WDSOF1 (UniProt Q9NV06) | inactive: 0 |
| UXT (UniProt Q9UBK9) | inactive: 0 |
| VPS13D (UniProt Q5THJ4) | inactive: 0 |
| ZNF277 (UniProt Q9NRM2) | inactive: 0 |
| VAMP2 (UniProt P63027) | inactive: 0 |
| ZHX2 (UniProt Q9Y6X8) | inactive: 0 |
| ZC3H12D (UniProt A2A288) | inactive: 0 |
| ZADH2 (UniProt Q8N4Q0) | inactive: 0 |
| WDR36 (UniProt Q8NI36) | inactive: 0 |
| ZDHHC17 (UniProt Q8IUH5) | inactive: 0 |
